Publication PMC7538575
Results are given in words; binding and its absence hold for the method and conditions named. In cells and extracts the contact can be indirect. Some results given as binding are weak or reduced against the parent protein; the word gives no strength. One block for each molecule: values may come before it.

By UniProt entry, the sequences of proteins in these tests, tags left out.
UniProt P42227: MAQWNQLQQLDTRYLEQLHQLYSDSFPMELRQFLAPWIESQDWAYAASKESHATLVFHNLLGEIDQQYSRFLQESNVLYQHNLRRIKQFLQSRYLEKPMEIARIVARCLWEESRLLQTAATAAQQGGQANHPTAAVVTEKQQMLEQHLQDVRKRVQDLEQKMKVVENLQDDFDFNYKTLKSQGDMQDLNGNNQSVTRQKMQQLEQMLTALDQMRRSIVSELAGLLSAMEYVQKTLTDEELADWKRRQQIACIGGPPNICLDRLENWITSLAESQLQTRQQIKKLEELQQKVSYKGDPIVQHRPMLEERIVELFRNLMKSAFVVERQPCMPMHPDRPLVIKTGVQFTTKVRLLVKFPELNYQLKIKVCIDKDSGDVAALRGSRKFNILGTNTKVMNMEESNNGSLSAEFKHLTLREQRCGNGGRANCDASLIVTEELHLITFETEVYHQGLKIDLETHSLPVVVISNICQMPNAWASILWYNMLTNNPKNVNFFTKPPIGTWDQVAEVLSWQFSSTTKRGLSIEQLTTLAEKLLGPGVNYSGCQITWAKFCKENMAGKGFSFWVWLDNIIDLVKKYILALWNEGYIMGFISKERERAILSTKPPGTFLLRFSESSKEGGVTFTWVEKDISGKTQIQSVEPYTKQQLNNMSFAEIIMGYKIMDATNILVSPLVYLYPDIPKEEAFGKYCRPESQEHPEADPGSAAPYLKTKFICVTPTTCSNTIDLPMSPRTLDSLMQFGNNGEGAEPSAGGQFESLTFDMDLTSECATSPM
UniProt O09106: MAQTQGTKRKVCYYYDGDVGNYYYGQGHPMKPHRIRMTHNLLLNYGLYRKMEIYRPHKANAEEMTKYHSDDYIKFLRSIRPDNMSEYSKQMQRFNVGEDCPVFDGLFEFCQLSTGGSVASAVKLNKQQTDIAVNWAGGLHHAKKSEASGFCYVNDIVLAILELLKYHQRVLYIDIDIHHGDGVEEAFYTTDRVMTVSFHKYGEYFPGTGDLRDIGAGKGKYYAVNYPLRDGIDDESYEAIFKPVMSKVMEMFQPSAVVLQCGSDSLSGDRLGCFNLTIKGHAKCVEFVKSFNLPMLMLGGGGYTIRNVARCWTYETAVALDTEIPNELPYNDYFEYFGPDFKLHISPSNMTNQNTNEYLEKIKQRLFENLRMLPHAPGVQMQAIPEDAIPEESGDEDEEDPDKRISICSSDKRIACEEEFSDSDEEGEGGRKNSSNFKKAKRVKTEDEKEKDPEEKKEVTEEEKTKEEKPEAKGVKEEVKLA

Columns and labels:
Assay in all cases: co-IP; endogenous proteins in total lysates of BV2 cells (LPS 100 ng/ml or IL-4 20 ng/ml for 24 h, with or without parthenolide 1 μM); lysis in buffer A (20 mM TrisHCl pH 7.4, 150 mM NaCl, 1% Triton X-100, 0.5% sodium deoxycholate); immunoprecipitated with anti-STAT1, anti-STAT3 or anti-STAT6 overnight at 4 °C on protein A/G magnetic beads; immunoblot
[1] = target: T1, STAT6 (mouse (endogenous in BV2)) (UniProt P52633)
T1 sequence: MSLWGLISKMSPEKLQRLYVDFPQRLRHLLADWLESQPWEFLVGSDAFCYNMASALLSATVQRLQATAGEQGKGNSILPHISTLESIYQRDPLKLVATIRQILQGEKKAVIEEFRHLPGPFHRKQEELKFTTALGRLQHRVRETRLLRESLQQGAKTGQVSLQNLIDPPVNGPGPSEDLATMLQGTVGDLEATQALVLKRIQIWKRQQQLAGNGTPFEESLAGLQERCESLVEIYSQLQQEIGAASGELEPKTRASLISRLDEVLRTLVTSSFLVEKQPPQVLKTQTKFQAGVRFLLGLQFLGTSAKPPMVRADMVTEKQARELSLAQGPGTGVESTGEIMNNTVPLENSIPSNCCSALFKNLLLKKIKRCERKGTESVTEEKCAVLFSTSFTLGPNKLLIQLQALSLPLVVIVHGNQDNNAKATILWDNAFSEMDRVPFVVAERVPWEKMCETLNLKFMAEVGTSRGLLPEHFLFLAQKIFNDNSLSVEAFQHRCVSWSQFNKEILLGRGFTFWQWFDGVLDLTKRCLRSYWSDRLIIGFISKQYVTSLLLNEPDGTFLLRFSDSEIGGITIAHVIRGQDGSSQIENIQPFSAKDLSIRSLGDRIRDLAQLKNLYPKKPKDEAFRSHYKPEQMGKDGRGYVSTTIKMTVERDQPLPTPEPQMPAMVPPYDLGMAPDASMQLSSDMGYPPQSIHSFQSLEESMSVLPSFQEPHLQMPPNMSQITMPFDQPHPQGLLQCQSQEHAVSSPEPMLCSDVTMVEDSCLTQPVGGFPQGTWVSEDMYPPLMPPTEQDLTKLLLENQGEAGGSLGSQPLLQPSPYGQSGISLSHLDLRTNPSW

[2] = target: T2, signal transducer and activator of transcription 1 (STAT1) (mouse (endogenous in BV2)) (UniProt P42225)
T2 sequence: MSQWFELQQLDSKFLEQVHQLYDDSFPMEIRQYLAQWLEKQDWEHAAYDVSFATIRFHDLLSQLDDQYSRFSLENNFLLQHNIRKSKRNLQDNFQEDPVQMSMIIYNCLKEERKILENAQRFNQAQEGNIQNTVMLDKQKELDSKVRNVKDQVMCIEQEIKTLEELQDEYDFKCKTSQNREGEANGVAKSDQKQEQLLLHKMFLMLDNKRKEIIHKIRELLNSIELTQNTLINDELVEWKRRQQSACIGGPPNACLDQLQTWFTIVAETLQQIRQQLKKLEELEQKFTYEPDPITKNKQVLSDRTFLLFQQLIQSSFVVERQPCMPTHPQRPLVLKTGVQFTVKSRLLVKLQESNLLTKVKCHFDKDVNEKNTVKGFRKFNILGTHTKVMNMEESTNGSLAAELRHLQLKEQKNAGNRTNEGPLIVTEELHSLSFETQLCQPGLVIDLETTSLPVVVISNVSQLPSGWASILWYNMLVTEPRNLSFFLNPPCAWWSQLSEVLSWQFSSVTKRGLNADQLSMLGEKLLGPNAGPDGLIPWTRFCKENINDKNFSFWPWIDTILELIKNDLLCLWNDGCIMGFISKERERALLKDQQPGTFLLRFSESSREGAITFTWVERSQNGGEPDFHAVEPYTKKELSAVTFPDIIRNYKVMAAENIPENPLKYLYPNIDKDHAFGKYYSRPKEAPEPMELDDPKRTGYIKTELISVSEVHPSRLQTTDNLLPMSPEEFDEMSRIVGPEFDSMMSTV

[3] = target: signal transducer and activator of transcription 3 (STAT3) (mouse (endogenous in BV2)) (UniProt P42227)
[4] = target: T3, signal transducer and activator of transcription 1 (STAT1) (mouse (endogenous in BV2)), P42225; conditions: remark: other sources report otherwise
T3 chain: T2 sequence

- binding [1]: binds
- binding [2]: binds
- binding [3]: binds
Molecule: HDAC1 (from UniProt O09106 1-482) (enzyme)

- binding [4]: binds
B1: NF-κB (p65), Q04207 1-549 (protein)
chain: MDDLFPLIFPSEPAQASGPYVEIIEQPKQRGMRFRYKCEGRSAGSIPGERSTDTTKTHPTIKINGYTGPGTVRISLVTKDPPHRPHPHELVGKDCRDGYYEADLCPDRSIHSFQNLGIQCVKKRDLEQAISQRIQTNNNPFHVPIEEQRGDYDLNAVRLCFQVTVRDPAGRPLLLTPVLSHPIFDNRAPNTAELKICRVNRNSGSCLGGDEIFLLCDKVQKEDIEVYFTGPGWEARGSFSQADVHRQVAIVFRTPPYADPSLQAPVRVSMQLRRPSDRELSEPMEFQYLPDTDDRHRIEEKRKRTYETFKSIMKKSPFNGPTEPRPPTRRIAVPTRNSTSVPKPAPQPYTFPASLSTINFDEFSPMLLPSGQISNQALALAPSSAPVLAQTMVPSSAMVPLAQPPAPAPVLTPGPPQSLSAPVPKSTQAGEGTLSEALLHLQFDADEDLGALLGNSTDPGVFTDLASVDNSEFQQLLNQGVSMSHSTAEPMLMEYPEAITRLVTGSQRPPDPAPTPLGTSGLPNGLSGDEDFSSIADMDFSALLSQISS
